From publication PMC1933423
No constants are given. Whether binding was seen depends on the method and setting. For some assays here: A result given as binding can be weak or reduced; the word gives no strength. For some assays here: Where a sequence is shown, tags or fusion partners need not be part of it.

What was measured:
[1] = molecular target: T1, chick Hairy1 protein, whole (two-hybrid fusion) (chick (Gallus gallus)) (UniProt O57337); assay: two-hybrid; quantification of reporter beta-galactosidase activity in liquid culture, normalised to the Hairy1/Hairy1 interaction
T1 sequence: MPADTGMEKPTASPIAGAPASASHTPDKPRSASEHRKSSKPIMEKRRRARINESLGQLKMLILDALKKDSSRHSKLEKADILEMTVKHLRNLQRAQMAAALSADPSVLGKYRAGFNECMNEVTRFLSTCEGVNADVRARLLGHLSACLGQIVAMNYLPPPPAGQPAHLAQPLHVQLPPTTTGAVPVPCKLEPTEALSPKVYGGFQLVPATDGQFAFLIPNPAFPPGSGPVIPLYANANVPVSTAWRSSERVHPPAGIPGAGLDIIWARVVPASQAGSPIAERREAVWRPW

[2] = molecular target: T2, C-terminal portion of the chick Hairy1 protein (C-Term, amino acids 150-291) (chick (Gallus gallus)) (UniProt O57337); assay: as above
T2 sequence: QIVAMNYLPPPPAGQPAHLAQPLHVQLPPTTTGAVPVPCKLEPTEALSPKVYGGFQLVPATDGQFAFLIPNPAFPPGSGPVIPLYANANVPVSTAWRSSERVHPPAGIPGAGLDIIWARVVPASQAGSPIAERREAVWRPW

[3] = molecular target: T1, chick Hairy1 protein, whole (two-hybrid fusion) (chick (Gallus gallus)); assay: two-hybrid; confirmation by mating: baits (Gal4 DNA-BD, pGBKT7) in Y187, preys (Gal4 AD, pGADT7) in AH109; growth of 20-fold serial dilutions on SD-Leu/-Trp/-His/-Ade/X-alpha-gal medium
[4] = molecular target: T3, N-terminus of chick Hairy1 (bHLH-OR, amino acids 1-163) (chick (Gallus gallus)) (UniProt O57337); assay: as above
T3 sequence: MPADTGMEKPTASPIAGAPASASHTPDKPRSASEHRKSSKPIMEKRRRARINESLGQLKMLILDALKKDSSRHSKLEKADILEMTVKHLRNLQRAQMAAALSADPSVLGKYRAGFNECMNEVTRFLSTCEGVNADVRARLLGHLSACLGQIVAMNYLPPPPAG

[5] = molecular target: T2, C-terminal portion of the chick Hairy1 protein (C-Term, amino acids 150-291) (chick (Gallus gallus)); assay: as above

With “chick Sap18 (prey of the confirmatory two-hybrid assays)” the binding [1] was “binds”, the binding [2] was “binds” and the binding [3] was “binds”. The binding [4] was “no binding” and the binding [5] was “binds”.
